5 molecules from article PMC8097366, “The Dual Function of KDM5C in Both Gene Transcriptional Activation and Repression Promotes Breast Cancer Cell Growth and Tumorigenesis” (Advanced Science, 2021) can be followed below.

Chains of the proteins cited; added tags and fusions are not shown.
UniProt P41229: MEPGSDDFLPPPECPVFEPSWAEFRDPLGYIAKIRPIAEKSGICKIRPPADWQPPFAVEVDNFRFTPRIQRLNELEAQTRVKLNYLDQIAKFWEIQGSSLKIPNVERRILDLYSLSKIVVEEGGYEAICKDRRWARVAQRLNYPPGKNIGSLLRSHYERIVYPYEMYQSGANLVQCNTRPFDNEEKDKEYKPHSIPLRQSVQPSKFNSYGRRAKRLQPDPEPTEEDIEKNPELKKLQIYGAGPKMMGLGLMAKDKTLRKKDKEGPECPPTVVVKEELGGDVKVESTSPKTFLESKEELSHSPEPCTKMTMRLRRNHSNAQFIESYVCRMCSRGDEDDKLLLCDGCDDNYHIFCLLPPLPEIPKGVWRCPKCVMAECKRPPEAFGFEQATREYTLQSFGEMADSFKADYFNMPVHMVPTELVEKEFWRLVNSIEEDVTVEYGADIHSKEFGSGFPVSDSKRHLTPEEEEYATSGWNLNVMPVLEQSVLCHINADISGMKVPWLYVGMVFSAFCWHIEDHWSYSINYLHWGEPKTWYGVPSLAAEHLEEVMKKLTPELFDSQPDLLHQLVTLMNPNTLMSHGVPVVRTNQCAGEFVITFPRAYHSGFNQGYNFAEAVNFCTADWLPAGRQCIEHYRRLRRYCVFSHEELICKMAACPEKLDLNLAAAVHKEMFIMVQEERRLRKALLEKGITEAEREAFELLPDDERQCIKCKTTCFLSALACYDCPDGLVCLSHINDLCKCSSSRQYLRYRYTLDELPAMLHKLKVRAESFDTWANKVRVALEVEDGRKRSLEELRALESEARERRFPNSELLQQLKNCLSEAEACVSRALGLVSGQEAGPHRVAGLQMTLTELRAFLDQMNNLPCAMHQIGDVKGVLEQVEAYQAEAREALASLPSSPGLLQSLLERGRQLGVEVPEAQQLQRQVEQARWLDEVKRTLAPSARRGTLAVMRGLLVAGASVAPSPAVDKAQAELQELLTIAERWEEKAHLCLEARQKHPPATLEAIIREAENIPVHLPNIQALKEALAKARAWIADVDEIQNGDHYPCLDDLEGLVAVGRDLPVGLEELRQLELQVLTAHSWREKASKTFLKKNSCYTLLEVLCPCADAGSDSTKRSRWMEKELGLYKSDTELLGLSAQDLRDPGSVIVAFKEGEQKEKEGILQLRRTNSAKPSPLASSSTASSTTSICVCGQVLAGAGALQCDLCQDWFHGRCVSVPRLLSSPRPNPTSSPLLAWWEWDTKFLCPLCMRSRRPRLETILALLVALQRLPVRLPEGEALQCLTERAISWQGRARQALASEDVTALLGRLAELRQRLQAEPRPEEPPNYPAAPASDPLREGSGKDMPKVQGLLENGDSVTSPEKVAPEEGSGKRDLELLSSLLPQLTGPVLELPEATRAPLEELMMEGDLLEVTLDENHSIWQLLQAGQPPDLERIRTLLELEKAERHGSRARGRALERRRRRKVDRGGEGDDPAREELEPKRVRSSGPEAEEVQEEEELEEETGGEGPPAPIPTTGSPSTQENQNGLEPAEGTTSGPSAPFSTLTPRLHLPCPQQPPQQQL
UniProt P50750: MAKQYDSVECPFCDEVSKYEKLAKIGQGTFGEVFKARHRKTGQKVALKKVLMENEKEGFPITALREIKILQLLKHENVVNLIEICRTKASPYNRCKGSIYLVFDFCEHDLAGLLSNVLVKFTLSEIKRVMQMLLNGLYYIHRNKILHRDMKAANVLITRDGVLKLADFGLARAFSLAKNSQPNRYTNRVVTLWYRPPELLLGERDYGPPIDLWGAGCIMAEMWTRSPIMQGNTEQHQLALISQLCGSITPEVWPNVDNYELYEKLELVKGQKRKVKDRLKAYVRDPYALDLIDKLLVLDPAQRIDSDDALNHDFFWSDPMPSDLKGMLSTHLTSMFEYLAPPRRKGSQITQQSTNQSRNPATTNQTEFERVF
UniProt P03372: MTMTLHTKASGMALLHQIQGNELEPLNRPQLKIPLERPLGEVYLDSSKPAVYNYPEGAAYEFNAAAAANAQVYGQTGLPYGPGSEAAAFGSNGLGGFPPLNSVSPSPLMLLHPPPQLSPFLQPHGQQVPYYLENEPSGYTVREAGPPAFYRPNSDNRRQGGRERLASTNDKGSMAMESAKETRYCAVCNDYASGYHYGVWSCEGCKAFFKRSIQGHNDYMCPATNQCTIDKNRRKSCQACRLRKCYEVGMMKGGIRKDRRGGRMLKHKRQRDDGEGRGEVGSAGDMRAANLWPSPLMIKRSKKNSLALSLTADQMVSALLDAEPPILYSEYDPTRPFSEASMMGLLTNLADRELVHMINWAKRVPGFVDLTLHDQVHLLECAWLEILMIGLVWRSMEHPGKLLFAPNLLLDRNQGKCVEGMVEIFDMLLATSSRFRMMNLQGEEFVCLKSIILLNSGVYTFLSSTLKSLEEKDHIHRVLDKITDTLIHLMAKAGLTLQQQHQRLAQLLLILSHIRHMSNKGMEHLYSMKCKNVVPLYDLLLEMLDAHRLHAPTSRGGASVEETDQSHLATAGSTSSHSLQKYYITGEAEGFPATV
UniProt Q9UHD2: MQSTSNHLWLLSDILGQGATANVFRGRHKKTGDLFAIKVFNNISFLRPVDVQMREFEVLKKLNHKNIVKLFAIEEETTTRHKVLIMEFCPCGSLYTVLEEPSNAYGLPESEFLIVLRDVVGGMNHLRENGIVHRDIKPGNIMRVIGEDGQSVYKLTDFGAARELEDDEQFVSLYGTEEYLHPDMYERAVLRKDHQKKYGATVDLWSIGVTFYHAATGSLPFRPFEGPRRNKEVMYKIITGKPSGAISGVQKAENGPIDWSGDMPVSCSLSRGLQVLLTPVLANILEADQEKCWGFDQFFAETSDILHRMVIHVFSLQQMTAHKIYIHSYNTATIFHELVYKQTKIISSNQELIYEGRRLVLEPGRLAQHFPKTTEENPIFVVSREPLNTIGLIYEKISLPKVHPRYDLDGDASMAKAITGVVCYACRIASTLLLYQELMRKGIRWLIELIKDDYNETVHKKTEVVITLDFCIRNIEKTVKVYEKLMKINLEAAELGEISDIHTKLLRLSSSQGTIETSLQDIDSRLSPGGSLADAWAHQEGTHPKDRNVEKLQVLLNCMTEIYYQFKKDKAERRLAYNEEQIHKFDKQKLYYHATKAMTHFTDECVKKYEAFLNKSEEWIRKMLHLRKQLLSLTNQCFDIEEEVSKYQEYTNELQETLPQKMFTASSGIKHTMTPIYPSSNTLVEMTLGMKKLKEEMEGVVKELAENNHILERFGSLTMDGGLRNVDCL

Results are given in words; binding and its absence hold for the method and conditions named. In cells and extracts the contact can be indirect. A yes stands for co-enrichment or nearness to the bait. Other partners may have been found.

Experiment [1] has as its target Flag- and HA-tagged KDM5C (pCDH-CMV-3×Flag-KDM5C-3×HA-EF1-Puro) (UniProt P41229). The experiment is described as follows: affinity purification with mass spectrometry; nuclear extracts of SILAC-labelled MCF7 cells expressing Flag-HA-tagged KDM5C, with or without estrogen (10^-7 M, 1 h), pooled; anti-HA agarose, washes with 0.15 M and 0.1 M KCl, 0.2% NP-40, elution with HA peptides; LC-MS/MS.

The target is the same in experiment [2]. The experiment is described as follows: affinity purification with mass spectrometry; affinity purification of Flag-HA-tagged KDM5C from MCF7 cells as in a1 and a2; the sentence does not tell the fraction (nuclear or cytosolic).
Experiment [3] has the same target. The experiment is described as follows: affinity purification with mass spectrometry; cytosolic fraction of SILAC-labelled MCF7 cells expressing Flag-HA-tagged KDM5C, with or without estrogen; affinity purification and MS.
The target is the same in experiment [4]. The experiment is described as follows: affinity purification with mass spectrometry; nuclear extracts of SILAC-labelled MCF7 cells expressing Flag-HA-tagged KDM5C, with or without estrogen (10^-7 M, 1 h), pooled; anti-HA agarose, washes with 0.15 M and 0.1 M KCl, 0.2% NP-40, elution with HA peptides; LC-MS/MS. The source holds these as a separate data set.

As to “CDK9, endogenous in MCF7 (from UniProt P50750 1-372)”, the binding result in experiment [1] is recorded as “binds”.

For the molecule “estrogen receptor alpha, endogenous in MCF7 (from UniProt P03372 1-595)”, the binding entry in experiment [2] is recorded as “binds”. Regarding “TBK1, endogenous in MCF7 (from UniProt Q9UHD2 1-729) (enzyme)”, in experiment [3], the binding result was “binds”.

B1: ZNF592, endogenous in MCF7 (protein, UniProt Q92610 1-1267)
chain: MGDMKTPDFDDLLAAFDIPDPTSLDAKEAIQTPSEENESPLKPPGICMDESVSLSHSGSAPDVPAVSVIVKNTSRQESFEAEKDHITPSLLHNGFRGSDLPPDPHNCGKFDSTFMNGDSARSFPGKLEPPKSEPLPTFNQFSPISSPEPEDPIKDNGFGIKPKHSDSYFPPPLGCGAVGGPVLEALAKFPVPELHMFDHFCKKEPKPEPLPLGSQQEHEQSGQNTVEPHKDPDATRFFGEALEFNSHPSNSIGESKGLARELGTCSSVPPRQRLKPAHSKLSSCVAALVALQAKRVASVTKEDQPGHTKDLSGPTKESSKGSPKMPKSPKSPRSPLEATRKSIKPSDSPRSICSDSSSKGSPSVAASSPPAIPKVRIKTIKTSSGEIKRTVTRILPDPDDPSKSPVGSPLGSAIAEAPSEMPGDEVPVEEHFPEAGTNSGSPQGARKGDESMTKASDSSSPSCSSGPRVPKGAAPGSQTGKKQQSTALQASTLAPANLLPKAVHLANLNLVPHSVAASVTAKSSVQRRSQPQLTQMSVPLVHQVKKAAPLIVEVFNKVLHSSNPVPLYAPNLSPPADSRIHVPASGYCCLECGDAFALEKSLSQHYGRRSVHIEVLCTLCSKTLLFFNKCSLLRHARDHKSKGLVMQCSQLLVKPISADQMFVSAPVNSTAPAAPAPSSSPKHGLTSGSASPPPPALPLYPDPVRLIRYSIKCLECHKQMRDYMVLAAHFQRTTEETEGLTCQVCQMLLPNQCSFCAHQRIHAHKSPYCCPECGVLCRSAYFQTHVKENCLHYARKVGYRCIHCGVVHLTLALLKSHIQERHCQVFHKCAFCPMAFKTASSTADHSATQHPTQPHRPSQLIYKCSCEMVFNKKRHIQQHFYQNVSKTQVGVFKCPECPLLFVQKPELMQHVKSTHGVPRNVDELSSLQSSADTSSSRPGSRVPTEPPATSVAARSSSLPSGRWGRPEAHRRVEARPRLRNTGWTCQECQEWVPDRESYVSHMKKSHGRTLKRYPCRQCEQSFHTPNSLRKHIRNNHDTVKKFYTCGYCTEDSPSFPRPSLLESHISLMHGIRNPDLSQTSKVKPPGGHSPQVNHLKRPVSGVGDAPGTSNGATVSSTKRHKSLFQCAKCSFATDSGLEFQSHIPQHQVDSSTAQCLLCGLCYTSASSLSRHLFIVHKVRDQEEEEEEEAAAAEMAVEVAEPEEGSGEEVPMETRENGLEECAGEPLSADPEARRLLGPAPEDDGGHNDHSQPQASQDQDSHTLSPQV
With B1, in experiment [4], the binding result was “binds”.

B2: ZNF687, endogenous in MCF7 (protein, UniProt Q8N1G0 1-1237)
chain: MGDMKTPDFDDLLAAFDIPDIDANEAIHSGPEENEGPGGPGKPEPGVGSESEDTAAASAGDGPGVPAQASDHGLPPPDISVVSVIVKNTVCPEQSEALAGGSAGDGAQAAGVTKEGPVGPHRMQNGFGSPEPSLPGTPHSPAPPSGGTWKEKGMEGKTPLDLFAHFGPEPGDHSDPLPPSAPSPTREGALTPPPFPSSFELAQENGPGMQPPVSSPPLGALKQESCSPHHPQVLAQQGSGSSPKATDIPASASPPPVAGVPFFKQSPGHQSPLASPKVPVCQPLKEEDDDEGPVDKSSPGSPQSPSSGAEAADEDSNDSPASSSSRPLKVRIKTIKTSCGNITRTVTQVPSDPDPPAPLAEGAFLAEASLLKLSPATPTSEGPKVVSVQLGDGTRLKGTVLPVATIQNASTAMLMAASVARKAVVLPGGTATSPKMIAKNVLGLVPQALPKADGRAGLGTGGQKVNGASVVMVQPSKTATGPSTGGGTVISRTQSSLVEAFNKILNSKNLLPAYRPNLSPPAEAGLALPPTGYRCLECGDAFSLEKSLARHYDRRSMRIEVTCNHCARRLVFFNKCSLLLHAREHKDKGLVMQCSHLVMRPVALDQMVGQPDITPLLPVAVPPVSGPLALPALGKGEGAITSSAITTVAAEAPVLPLSTEPPAAPATSAYTCFRCLECKEQCRDKAGMAAHFQQLGPPAPGATSNVCPTCPMMLPNRCSFSAHQRMHKNRPPHVCPECGGNFLQANFQTHLREACLHVSRRVGYRCPSCSVVFGGVNSIKSHIQTSHCEVFHKCPICPMAFKSGPSAHAHLYSQHPSFQTQQAKLIYKCAMCDTVFTHKPLLSSHFDQHLLPQRVSVFKCPSCPLLFAQKRTMLEHLKNTHQSGRLEETAGKGAGGALLTPKTEPEELAVSQGGAAPATEESSSSSEEEEVPSSPEPPRPAKRPRRELGSKGLKGGGGGPGGWTCGLCHSWFPERDEYVAHMKKEHGKSVKKFPCRLCERSFCSAPSLRRHVRVNHEGIKRVYPCRYCTEGKRTFSSRLILEKHVQVRHGLQLGAQSPGRGTTLARGSSARAQGPGRKRRQSSDSCSEEPDSTTPPAKSPRGGPGSGGHGPLRYRSSSSTEQSLMMGLRVEDGAQQCLDCGLCFASPGSLSRHRFISHKKRRGVGKASALGLGDGEEEAPPSRSDPDGGDSPLPASGGPLTCKVCGKSCDSPLNLKTHFRTHGMAFIRARQGAVGDN
On to B2, for which, in experiment [4], the binding entry is “binds”.
